The supplement of paper PMC12819154, “High-throughput peptide-centric local stability assay extends protein–ligand identification to membrane proteins, tissues and bacteria” (Nature Structural & Molecular Biology, 2025)
This is one part of the list. Small differences around the control level are noise.

Chains of the proteins cited; added tags and fusions are not shown. Lines headed by an entry give the natural chain unless they say otherwise; changes in a name come on top.
UniProt Q9H0F6: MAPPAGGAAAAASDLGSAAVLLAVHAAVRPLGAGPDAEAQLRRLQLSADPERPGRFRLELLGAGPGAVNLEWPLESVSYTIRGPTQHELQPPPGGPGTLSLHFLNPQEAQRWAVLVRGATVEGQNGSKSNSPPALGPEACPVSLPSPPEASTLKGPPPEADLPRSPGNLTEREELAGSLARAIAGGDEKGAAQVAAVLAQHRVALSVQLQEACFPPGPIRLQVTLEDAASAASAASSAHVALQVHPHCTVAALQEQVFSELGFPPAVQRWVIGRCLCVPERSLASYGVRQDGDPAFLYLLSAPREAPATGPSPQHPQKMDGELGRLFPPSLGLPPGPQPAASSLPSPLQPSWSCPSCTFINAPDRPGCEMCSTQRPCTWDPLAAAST
UniProt Q9BZF2: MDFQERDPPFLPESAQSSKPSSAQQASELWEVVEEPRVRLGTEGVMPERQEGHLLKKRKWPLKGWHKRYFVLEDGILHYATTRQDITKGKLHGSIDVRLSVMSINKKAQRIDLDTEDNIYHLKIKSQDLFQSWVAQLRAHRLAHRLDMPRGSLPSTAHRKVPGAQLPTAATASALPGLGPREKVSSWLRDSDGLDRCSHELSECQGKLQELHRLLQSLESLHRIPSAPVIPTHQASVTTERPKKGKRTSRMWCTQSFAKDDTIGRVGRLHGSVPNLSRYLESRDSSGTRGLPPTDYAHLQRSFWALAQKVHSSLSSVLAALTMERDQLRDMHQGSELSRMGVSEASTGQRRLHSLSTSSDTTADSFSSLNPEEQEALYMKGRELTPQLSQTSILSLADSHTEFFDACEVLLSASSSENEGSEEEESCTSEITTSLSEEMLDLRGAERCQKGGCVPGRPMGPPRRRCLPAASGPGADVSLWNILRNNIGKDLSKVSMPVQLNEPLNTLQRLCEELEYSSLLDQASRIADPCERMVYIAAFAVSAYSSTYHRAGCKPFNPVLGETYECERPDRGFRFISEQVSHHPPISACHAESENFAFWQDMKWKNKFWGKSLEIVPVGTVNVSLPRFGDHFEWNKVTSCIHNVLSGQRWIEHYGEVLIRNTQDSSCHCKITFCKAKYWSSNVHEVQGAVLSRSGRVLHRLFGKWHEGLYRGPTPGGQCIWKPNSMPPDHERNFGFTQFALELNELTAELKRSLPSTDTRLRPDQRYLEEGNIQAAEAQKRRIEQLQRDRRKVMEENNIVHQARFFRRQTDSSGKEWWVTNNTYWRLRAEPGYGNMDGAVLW
UniProt Q9BZL1: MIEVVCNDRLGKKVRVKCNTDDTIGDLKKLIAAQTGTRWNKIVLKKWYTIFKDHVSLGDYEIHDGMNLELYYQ
UniProt Q9BXS4: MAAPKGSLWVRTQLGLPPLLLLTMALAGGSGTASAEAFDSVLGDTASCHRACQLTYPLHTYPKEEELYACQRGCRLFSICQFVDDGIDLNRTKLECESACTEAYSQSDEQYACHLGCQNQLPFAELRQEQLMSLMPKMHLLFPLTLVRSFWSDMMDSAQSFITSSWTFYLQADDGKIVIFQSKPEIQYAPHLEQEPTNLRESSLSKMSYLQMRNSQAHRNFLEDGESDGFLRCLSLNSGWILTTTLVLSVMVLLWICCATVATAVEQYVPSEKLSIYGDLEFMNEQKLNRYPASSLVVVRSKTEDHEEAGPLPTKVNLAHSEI
UniProt Q9BXK5, whole entry: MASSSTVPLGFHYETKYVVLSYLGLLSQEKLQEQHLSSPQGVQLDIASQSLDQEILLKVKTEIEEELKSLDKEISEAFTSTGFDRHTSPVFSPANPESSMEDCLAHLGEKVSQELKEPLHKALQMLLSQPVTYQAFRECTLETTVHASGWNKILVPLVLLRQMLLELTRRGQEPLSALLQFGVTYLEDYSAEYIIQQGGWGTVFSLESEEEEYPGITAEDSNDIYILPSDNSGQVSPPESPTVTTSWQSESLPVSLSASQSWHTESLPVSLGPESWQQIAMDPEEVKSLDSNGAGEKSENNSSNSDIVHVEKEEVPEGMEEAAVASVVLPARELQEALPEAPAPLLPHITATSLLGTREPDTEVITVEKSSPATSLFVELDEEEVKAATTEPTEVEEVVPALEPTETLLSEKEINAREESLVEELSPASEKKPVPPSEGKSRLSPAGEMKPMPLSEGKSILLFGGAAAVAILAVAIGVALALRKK
UniProt Q9C0C2: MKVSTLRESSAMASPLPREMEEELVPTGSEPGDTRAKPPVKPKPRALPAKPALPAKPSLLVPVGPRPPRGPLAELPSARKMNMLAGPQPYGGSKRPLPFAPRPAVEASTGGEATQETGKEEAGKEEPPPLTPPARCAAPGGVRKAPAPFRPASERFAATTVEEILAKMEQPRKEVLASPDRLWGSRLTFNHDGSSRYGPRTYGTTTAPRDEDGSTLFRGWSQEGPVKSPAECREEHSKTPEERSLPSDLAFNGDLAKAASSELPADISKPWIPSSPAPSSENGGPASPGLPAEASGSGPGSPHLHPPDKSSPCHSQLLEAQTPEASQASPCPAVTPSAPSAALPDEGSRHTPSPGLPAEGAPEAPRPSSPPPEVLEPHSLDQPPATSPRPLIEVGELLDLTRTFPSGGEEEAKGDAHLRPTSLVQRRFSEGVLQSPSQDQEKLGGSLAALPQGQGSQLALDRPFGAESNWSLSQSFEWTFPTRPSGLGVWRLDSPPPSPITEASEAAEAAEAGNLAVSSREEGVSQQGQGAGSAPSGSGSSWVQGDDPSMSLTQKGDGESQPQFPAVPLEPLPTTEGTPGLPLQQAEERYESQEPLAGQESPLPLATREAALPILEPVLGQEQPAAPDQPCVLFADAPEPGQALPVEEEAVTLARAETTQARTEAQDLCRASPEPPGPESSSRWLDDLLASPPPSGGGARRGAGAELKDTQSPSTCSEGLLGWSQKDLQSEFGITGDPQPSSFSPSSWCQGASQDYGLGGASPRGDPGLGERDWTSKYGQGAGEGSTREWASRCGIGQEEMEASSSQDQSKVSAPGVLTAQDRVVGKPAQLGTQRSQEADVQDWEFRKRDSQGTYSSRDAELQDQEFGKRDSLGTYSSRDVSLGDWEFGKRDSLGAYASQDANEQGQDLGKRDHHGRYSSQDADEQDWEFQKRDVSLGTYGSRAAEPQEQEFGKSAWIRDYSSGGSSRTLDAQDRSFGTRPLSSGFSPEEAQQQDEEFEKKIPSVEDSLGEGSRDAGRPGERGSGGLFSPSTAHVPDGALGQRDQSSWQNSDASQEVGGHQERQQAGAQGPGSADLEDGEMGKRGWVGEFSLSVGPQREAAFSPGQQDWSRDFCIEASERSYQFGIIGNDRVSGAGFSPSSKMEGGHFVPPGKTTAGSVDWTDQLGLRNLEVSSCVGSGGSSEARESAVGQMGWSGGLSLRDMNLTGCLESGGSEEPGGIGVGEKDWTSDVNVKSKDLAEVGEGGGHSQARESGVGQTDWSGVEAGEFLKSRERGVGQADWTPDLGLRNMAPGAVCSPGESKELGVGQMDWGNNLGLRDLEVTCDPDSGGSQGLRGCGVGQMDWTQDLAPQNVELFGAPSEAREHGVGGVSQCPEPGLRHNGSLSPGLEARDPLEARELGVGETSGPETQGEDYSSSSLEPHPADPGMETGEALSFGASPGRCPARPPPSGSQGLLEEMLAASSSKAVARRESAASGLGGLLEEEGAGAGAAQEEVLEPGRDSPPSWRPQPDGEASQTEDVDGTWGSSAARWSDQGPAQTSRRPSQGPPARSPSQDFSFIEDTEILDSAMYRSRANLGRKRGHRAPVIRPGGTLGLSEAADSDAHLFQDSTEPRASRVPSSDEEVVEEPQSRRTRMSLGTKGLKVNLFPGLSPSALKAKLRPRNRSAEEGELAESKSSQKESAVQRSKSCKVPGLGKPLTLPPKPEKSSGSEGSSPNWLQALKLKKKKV
UniProt Q9C0A6: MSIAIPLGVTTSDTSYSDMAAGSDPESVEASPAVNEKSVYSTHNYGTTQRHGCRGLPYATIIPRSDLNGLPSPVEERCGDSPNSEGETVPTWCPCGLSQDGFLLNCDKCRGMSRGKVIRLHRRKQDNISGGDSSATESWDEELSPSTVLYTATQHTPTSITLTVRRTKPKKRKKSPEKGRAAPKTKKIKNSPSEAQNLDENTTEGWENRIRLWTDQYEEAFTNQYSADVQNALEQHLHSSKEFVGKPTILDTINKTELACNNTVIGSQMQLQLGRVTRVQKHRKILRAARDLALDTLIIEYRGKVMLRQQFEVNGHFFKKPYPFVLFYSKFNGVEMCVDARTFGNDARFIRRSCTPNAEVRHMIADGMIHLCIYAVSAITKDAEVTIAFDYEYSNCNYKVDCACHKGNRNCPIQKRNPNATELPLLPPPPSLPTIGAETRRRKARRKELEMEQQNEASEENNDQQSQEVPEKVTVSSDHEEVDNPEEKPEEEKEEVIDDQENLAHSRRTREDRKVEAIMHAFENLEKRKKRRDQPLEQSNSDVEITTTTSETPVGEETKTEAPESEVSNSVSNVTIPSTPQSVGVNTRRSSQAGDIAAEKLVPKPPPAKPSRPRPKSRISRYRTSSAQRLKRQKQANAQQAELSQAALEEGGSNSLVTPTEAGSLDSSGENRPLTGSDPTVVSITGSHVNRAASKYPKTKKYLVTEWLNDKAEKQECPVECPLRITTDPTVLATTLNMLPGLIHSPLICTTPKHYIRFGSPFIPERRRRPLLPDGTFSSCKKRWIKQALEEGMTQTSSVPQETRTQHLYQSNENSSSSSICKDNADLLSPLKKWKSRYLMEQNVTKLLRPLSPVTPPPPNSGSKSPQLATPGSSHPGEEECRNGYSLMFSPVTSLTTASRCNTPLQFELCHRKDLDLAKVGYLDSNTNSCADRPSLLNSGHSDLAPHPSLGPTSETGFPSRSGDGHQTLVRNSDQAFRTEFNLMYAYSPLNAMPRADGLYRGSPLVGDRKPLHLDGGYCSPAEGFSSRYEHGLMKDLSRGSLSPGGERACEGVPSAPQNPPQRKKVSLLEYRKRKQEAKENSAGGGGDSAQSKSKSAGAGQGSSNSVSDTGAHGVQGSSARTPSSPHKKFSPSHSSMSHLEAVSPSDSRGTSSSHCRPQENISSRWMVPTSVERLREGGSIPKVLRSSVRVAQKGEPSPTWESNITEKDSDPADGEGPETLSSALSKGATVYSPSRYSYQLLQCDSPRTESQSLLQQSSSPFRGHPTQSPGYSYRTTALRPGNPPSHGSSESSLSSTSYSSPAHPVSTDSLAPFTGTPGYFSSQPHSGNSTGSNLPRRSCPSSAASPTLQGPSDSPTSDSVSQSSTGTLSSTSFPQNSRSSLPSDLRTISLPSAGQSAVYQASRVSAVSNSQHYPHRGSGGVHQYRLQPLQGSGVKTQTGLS
UniProt Q9H0E3: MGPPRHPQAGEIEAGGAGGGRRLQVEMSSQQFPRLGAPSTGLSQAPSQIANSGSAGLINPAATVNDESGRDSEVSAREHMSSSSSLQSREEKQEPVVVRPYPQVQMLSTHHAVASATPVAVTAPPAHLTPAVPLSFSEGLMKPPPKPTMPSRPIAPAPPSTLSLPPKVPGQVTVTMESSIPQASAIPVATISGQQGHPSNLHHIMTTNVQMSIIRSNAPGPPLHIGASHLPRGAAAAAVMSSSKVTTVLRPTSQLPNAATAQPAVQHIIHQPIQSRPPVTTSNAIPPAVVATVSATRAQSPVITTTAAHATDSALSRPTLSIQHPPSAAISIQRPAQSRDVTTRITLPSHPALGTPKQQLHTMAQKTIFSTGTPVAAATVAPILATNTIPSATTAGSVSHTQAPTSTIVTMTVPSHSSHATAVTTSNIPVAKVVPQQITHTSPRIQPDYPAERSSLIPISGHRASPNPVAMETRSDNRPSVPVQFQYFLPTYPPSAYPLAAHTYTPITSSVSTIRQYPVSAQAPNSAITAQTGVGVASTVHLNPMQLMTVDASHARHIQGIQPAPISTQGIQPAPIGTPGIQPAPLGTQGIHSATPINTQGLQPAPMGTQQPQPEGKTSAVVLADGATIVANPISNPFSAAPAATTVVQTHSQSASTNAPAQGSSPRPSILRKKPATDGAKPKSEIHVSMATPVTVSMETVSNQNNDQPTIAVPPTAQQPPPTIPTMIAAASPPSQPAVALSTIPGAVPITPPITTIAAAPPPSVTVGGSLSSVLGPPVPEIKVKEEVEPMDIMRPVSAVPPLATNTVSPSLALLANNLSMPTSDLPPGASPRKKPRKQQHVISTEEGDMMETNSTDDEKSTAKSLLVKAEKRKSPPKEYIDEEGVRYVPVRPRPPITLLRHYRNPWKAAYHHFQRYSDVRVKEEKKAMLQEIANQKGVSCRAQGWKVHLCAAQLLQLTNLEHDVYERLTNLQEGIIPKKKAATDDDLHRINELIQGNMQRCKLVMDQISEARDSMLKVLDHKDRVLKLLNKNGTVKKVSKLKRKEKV

compound: Cc1nc(Nc2ncc(C(=O)Nc3c(C)cccc3Cl)s2)cc(N2CCN(CCO)CC2)n1 [dasatinib]; assay: log2 fold change of tryptic peptide abundance, ligand vs vehicle (limited proteolysis) (log2 ratio); higher = more trypsin-susceptible (destabilized); details: ligand concentration: 5 uM; sample: K562 cleared lysate

Row | Target | log2 fold change
1 | SHARPIN (peptide sequence: LQLSADPERPGR, peptide start residue: 44) (UniProt Q9H0F6) | 0.396
2 | UniProt Q9BZF2 (peptide sequence: YFVLEDGILHYATTR, peptide start residue: 69) | 0.461
3 | UniProt Q9BZL1 (peptide sequence: LIAAQTGTR, peptide start residue: 30) | -0.256
4 | XRN2 (peptide sequence: GVGAEPLLPWNR, peptide start residue: 884) (UniProt Q9H0D6) | -0.206
5 | TMEM59 (peptide sequence: LNRYPASSLVVVR, peptide start residue: 288) (UniProt Q9BXS4) | -0.22
6 | BCL2L13 (peptide sequence: KPVPPSEGK, peptide start residue: 432) (UniProt Q9BXK5) | 0.411
7 | TNKS1BP1 (peptide sequence: SPAECREEHSK, peptide start residue: 228) (UniProt Q9C0C2) | -0.853
8 | UniProt Q9C0A6 (peptide sequence: GTSSSHCRPQENISSR, peptide start residue: 1150) | 0.525
9 | SAP130 (peptide sequence: KAMLQEIANQK, peptide start residue: 927) (UniProt Q9H0E3) | -0.532
10 | DDX24 (peptide sequence: TWIPEVHDQKADVSAWK, peptide start residue: 179) (UniProt Q9GZR7) | 0.486

2 neighbouring entries already listed, for reference:
Row | Target | log2 fold change
5 | TMEM59 (peptide sequence: LNRYPASSLVVVR, peptide start residue: 288) (UniProt Q9BXS4) | -0.22
6 | BCL2L13 (peptide sequence: KPVPPSEGK, peptide start residue: 432) (UniProt Q9BXK5) | 0.411
